Where a chain is given by its changes, count along the chain named. These are yes or no findings as the source states them, for the method shown. Some entries that bind do so weakly or less than the wild type. Each block holds one binder with its values, some of them ahead of it.
Biological target: T1, Aβ(21-37)
T1 sequence (peptide): AEDVGSNKGAIIGLMVG
Experiment: sequenced from the IVIgG fraction bound to the Cys-Aβ(12-40) column; the single pair was not tested on its own

binding: binds
B1: Aβ-autoantibody from serum-IVIgG, light chain kappa IVIG_(1)_A' with heavy chain IVIG_(4)_A (antibody, V domains shown)
VH: EVQLVESGGGVVQPGGSLRLSCAASGFTFRSYWMSWVRQAPGKGLEWVASVKQDGSEKYYVDSVKGRFTISRDTSKNTLYLQMNSLRAEDTAVYYCARDASSWYRDWFDPWGQGTLVTVSS
VL: EIVLTQSPATLSLSPGERVTITCRASQSVNSYLAWYQQKPPGQAPRLLIYAGSTRATGIPDRFSGSGSGTDFTLTISRLEPEDFAVYYCQQYGSSQGTFGPGTKVDIKR
modifications: N-glycosylation at N-301

binding: binds
B2: Aβ-autoantibody from serum-IVIgG, light chain kappa IVIG_(2)_B' with heavy chain IVIG_(5)_B (antibody, V domains shown)
VH: B1 VH with S31G, A100G
VL: B1 VL with A25E, S28G, V29I, N30R, S31N, G52A, T54S
modifications: N-glycosylation at N-301

From patent publication EP1944315A1
